Laboratory results as given in article PMC8395313, “Membrane Association Modes of Natural Anticancer Peptides: Mechanistic Details on Helicity, Orientation, and Surface Coverage” (International Journal of Molecular Sciences, 2021).
No constants are given. Whether binding was seen depends on the method and setting.

Target: Temporin-La (Rana temporaria)
Assay: condition: only bound to PC/PG or PC/PS vesicles (2 µM peptide, 100 µM lipid); intrinsic tyrosine fluorescence; 2 µM peptide with 100 µM lipid (PC/PG or PC/PS vesicles), PBS, 25 °C, excitation at 275 nm; emission compared with that of the free peptide; both purified

With LLRHVVKILEKYL (C-terminal amide) [Temporin-La] the binding was “no binding”.
